Laboratory results: patent US8389744B1, “TTPO (5 6,7-trithiapentacene-13-one) and its derivatives: a new class of thermally stable, photooxidatively resistant organic semiconductors” (University of New Hampshire, priority 2011, dated 2013)

Assay: Organic thin-film transistor (OTFT) field effect mobility of TTPO thin film
Conditions: OTFT prepared from TTPO
Method: Drain current versus drain-source voltage are shown for several gate voltages. This device has a field-effect hole mobility of 1.27×10^−6 cm^2 V^−1 s^−1 at 75° C. and 8.05×10^−6 cm^2 V^−1 s^−1 at 100° C.
FET Studies of Thin-Films. […] (see FIG. 5 for drain-source current versus drain-source voltage behavior as a function of gate voltage).

In the case of O=C1c2cc3ccccc3c3c2C2=S(S3)Sc3c2c1cc1ccccc31 [TTPO, 5,6,7-Trithiapentacene-13-one], the field effect mobility (at 75° C.) is reported as 1.27×10^−6 cm^2 V^−1 s^−1 and the field effect mobility (at 100° C.) is reported as 8.05×10^−6 cm^2 V^−1 s^−1.
